This assay relates to BDF1 mice, colon carcinoma 38 sc, T/C %. Briefly: NCI In Vivo Anticancer Drug Screen. Data for tumor model Colon Carcinoma 38 (subcutaneous) in B6D2F1 (BDF1) mice. Put shortly:
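Transplantable tumor in mice; compound-treated vs vehicle-dosed controls. Measured survival or tumor size; value = T ÷ C.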

The list does not hold the whole screen: it is rich in T/C values a quarter to a half above the control, in often repeated tests (any T/C) and in doses without a T/C. Other doses and runs of a compound stand elsewhere. T/C: endpoint of the treated group in % of that of the vehicle group. Schedules are NCI's codes, read here as Q, the interval in days (D) or hours (H), X, the number of doses. Some T/C values are followed by the survivors on the day toxicity was checked, most often the fifth; without a count, all were alive then. Some entries give survivors of the animals treated and no T/C: the source holds a T/C of zero for them, seemingly a mark for toxic or unscored doses. Survivors were counted at the toxicity check, usually on the fifth day, unless a day is given; later deaths do not show. Some entries hold several experiments; the values are given in rising order. For survival time, the PubChem record calls one and a half times the control and up active, and a quarter to a half above the control has no call in these data; cut-offs in other NCI protocols can differ.

These results are taken from PubChem BioAssay AID212 (DTP/NCI, 2004).

Turning to `COC1=C(C)C(=O)C2=C(C1=O)C(CO)N1C(C#N)C3CC4C(C1C2N1CCOC41)N3C` (configuration not stated), the T/C (T/C endpoint: median tumor weight (est.), dose: 1.0 mg/kg/injection, schedule: Q07DX002 (ip), vehicle: saline + alcohol, evaluated on day 20, higher T/C = larger tumour) was 138 % of control.
As for `C#CCNC1=C(C)C(=O)C2=C(C1=O)[C@H](COC(N)=O)[C@]1(OC)[C@@H]3N[C@@H]3CN21`, the survivor count by setting is: (T/C endpoint: median tumor weight (est.), dose: 24.0 mg/kg/injection, schedule: Q07DX002 (ip), vehicle: distilled water + Tween-80, higher T/C = larger tumour) 0 of 10 on day 20; (T/C endpoint: median tumor weight (est.), dose: 25.0 mg/kg/injection, schedule: Q01DX001 (ip), vehicle: distilled water + Tween-80, higher T/C = larger tumour) 0 of 10 on day 20; (T/C endpoint: median tumor weight (est.), dose: 50.0 mg/kg/injection, schedule: Q01DX001 (ip), vehicle: distilled water + Tween-80, higher T/C = larger tumour) 0 of 10 on day 20; (T/C endpoint: median tumor weight (est.), dose: 100.0 mg/kg/injection, schedule: Q01DX001 (ip), vehicle: distilled water + Tween-80, higher T/C = larger tumour) 0 of 10 on day 20; (T/C endpoint: median tumor weight (est.), dose: 200.0 mg/kg/injection, schedule: Q01DX001 (ip), vehicle: distilled water + Tween-80, higher T/C = larger tumour) 0 of 10 on day 20.
`C=C(C)[C@]12CC(C)C34OC(/C=C\C=C\CCCCCCCCC)(O[C@@H]1[C@@H]3[C@@H]1O[C@]1(CO)[C@@H](O)[C@]1(O)C(=O)C(C)=C[C@@H]41)O2` (some centres not stated): the survivor count was 6 of 10 on day 20 (T/C endpoint: median tumor weight (est.), dose: 3.0 mg/kg/injection, schedule: Q07DX002 (ip), vehicle: distilled water + alcohol, higher T/C = larger tumour) and 1 of 10 on day 20 (T/C endpoint: median tumor weight (est.), dose: 6.0 mg/kg/injection, schedule: Q07DX002 (ip), vehicle: distilled water + alcohol, higher T/C = larger tumour).
As to `Nc1nc(/C=C(/O)c2ccccc2)c2ncn(C3OC(CO)C(O)C3O)c2n1` (configuration not stated), where the note is “T/C endpoint: median tumor weight (est.), dose: 50.0 mg/kg/injection, schedule: Q07DX002 (ip), vehicle: distilled water + Tween-80, evaluated on day 20, higher T/C = larger tumour”, the T/C was 146 % of control. Also, the survivor count is given as 5 of 10 on day 20 (T/C endpoint: median tumor weight (est.), dose: 200.0 mg/kg/injection, schedule: Q07DX002 (ip), vehicle: distilled water + Tween-80, higher T/C = larger tumour); 0 of 10 on day 20 (T/C endpoint: median tumor weight (est.), dose: 400.0 mg/kg/injection, schedule: Q07DX002 (ip), vehicle: distilled water + Tween-80, higher T/C = larger tumour); 3 of 10 on day 20 (T/C endpoint: median tumor weight (est.), dose: 400.0 mg/kg/injection, schedule: Q07DX002 (ip), vehicle: saline, higher T/C = larger tumour).
`Cc1cc(NCCCCCCNc2cc(C)nc3cc(N(C)C)ccc23)c2ccc(N(C)C)cc2n1`: the survivor count (T/C endpoint: median tumor weight (est.), dose: 200.0 mg/kg/injection, schedule: Q07DX002 (ip), vehicle: distilled water + Tween-80 + alcohol, higher T/C = larger tumour) was 0 of 10 on day 20.
Regarding `CC(C)CC(NC(=O)CF)C(=O)O` (configuration not stated), the survivor count (T/C endpoint: median tumor weight (est.), dose: 20.0 mg/kg/injection, schedule: Q07DX002 (ip), vehicle: saline, higher T/C = larger tumour) is 2 of 10 on day 20 and 4 of 10 on day 20.
As for `Nc1nc2c(ncn2C2OC(CO)C(O)C2N)c(=O)[nH]1` (configuration not stated), the T/C is, setting by setting: (T/C endpoint: median tumor weight (est.), dose: 25.0 mg/kg/injection, schedule: Q07DX002 (ip), vehicle: saline with Tween-80, evaluated on day 20, higher T/C = larger tumour) 145 % of control; (T/C endpoint: median tumor weight (est.), dose: 200.0 mg/kg/injection, schedule: Q07DX002 (ip), vehicle: saline with Tween-80, evaluated on day 20, higher T/C = larger tumour) 127 % of control.
Take `CCOC(=O)CNC(=O)CCCCSc1ncnc2nc[nH]c12`: the survivor count (T/C endpoint: median tumor weight (est.), dose: 3200.0 mg/kg/injection, schedule: Q07DX003 (ip), vehicle: saline with Tween-80, higher T/C = larger tumour) was 3 of 10.
Regarding `CCOC(OCC)C(=O)OCC(=O)[C@]1(O)Cc2c(O)c3c(c(O)c2[C@@H](OC2CC(N)C(O)C(C)O2)C1)C(=O)c1c(OC)cccc1C3=O` (some centres not stated), the T/C runs as follows: (T/C endpoint: median tumor weight (est.), dose: 1.0 mg/kg/injection, schedule: Q07DX002 (ip), vehicle: water, evaluated on day 20, higher T/C = larger tumour) 140 % of control; (T/C endpoint: median tumor weight (est.), dose: 8.0 mg/kg/injection, schedule: Q07DX002 (ip), vehicle: water, evaluated on day 20, higher T/C = larger tumour) 133 % of control. Besides, the survivor count by setting is: (T/C endpoint: median tumor weight (est.), dose: 16.0 mg/kg/injection, schedule: Q07DX002 (ip), vehicle: water, higher T/C = larger tumour) 2 of 10 on day 20; (T/C endpoint: median tumor weight (est.), dose: 32.0 mg/kg/injection, schedule: Q07DX002 (ip), vehicle: water, higher T/C = larger tumour) 0 of 10 on day 20.
As for `CN1CCN(c2ccc([N+](=O)[O-])c3no[n+]([O-])c23)CC1`, the T/C (T/C endpoint: median tumor weight (est.), dose: 10.0 mg/kg/injection, schedule: Q07DX002 (ip), vehicle: saline with Tween-80, evaluated on day 20, higher T/C = larger tumour) is 125 % of control. In addition, the survivor count runs as follows: (T/C endpoint: median tumor weight (est.), dose: 80.0 mg/kg/injection, schedule: Q07DX002 (ip), vehicle: saline with Tween-80, higher T/C = larger tumour) 2 of 10 on day 20; (T/C endpoint: median tumor weight (est.), dose: 160.0 mg/kg/injection, schedule: Q07DX002 (ip), vehicle: saline with Tween-80, higher T/C = larger tumour) 0 of 10 on day 20.
For `NC(=S)N/N=C/c1ccc(O)cn1`, for the setting “T/C endpoint: median tumor weight (est.), dose: 200.0 mg/kg/injection, schedule: Q07DX002 (ip), vehicle: suspension in saline, evaluated on day 20, higher T/C = larger tumour”, the T/C is 125 % of control.
As for `CCOc1cc2c(cc1C(C)c1ccc(OC)cc1)OCO2` (configuration not stated), the T/C (T/C endpoint: median tumor weight (est.), dose: 200.0 mg/kg/injection, schedule: Q07DX002 (ip), vehicle: distilled water + Tween-80 + alcohol, evaluated on day 20, higher T/C = larger tumour) is 127 % of control. Also, the survivor count (T/C endpoint: median tumor weight (est.), dose: 800.0 mg/kg/injection, schedule: Q07DX002 (ip), vehicle: distilled water + Tween-80 + alcohol, higher T/C = larger tumour) was 1 of 10 on day 20.
As for `Cc1cc(NC(=S)SCc2ccc3c(c2)OCO3)ccc1Cl`, the survivor count reads like this: (T/C endpoint: median tumor weight (est.), dose: 400.0 mg/kg/injection, schedule: Q07DX002 (ip), vehicle: Klucel (hydroxypropylcellulose) (HPC), higher T/C = larger tumour) 3 of 10 on day 20; (T/C endpoint: median tumor weight (est.), dose: 800.0 mg/kg/injection, schedule: Q07DX002 (ip), vehicle: Klucel (hydroxypropylcellulose) (HPC), higher T/C = larger tumour) 0 of 10 on day 20; (T/C endpoint: median tumor weight (est.), dose: 1600.0 mg/kg/injection, schedule: Q07DX002 (ip), vehicle: Klucel (hydroxypropylcellulose) (HPC), higher T/C = larger tumour) 0 of 10 on day 20.
Take `N=C(N)SCc1cccc2c(=O)cc(-c3ccccc3)oc12`: the survivor count (T/C endpoint: median tumor weight (est.), dose: 800.0 mg/kg/injection, schedule: Q07DX002 (ip), vehicle: saline, higher T/C = larger tumour) is 6 of 10 on day 20.
For the molecule `CC(=O)NCCCCCCNC(C)=O`, the T/C is 136 % of control (T/C endpoint: median tumor weight (est.), dose: 100.0 mg/kg/injection, schedule: Q07DX002 (ip), vehicle: saline, evaluated on day 20, higher T/C = larger tumour) and 128 % of control [9 of 10 alive on day 20] (T/C endpoint: median tumor weight (est.), dose: 400.0 mg/kg/injection, schedule: Q07DX002 (ip), vehicle: saline, evaluated on day 20, higher T/C = larger tumour).
In the case of `O=C1c2cccc3cc([N+](=O)[O-])cc(c23)C(=O)N1CCN1CCCC1`, the survivor count is listed as 0 of 10 on day 20 (T/C endpoint: median tumor weight (est.), dose: 50.0 mg/kg/injection, schedule: Q07DX002 (ip), vehicle: saline with Tween-80, higher T/C = larger tumour) and 0 of 10 on day 20 (T/C endpoint: median tumor weight (est.), dose: 100.0 mg/kg/injection, schedule: Q07DX002 (ip), vehicle: saline with Tween-80, higher T/C = larger tumour).
For the molecule `CCC[P+](c1ccccc1)(c1ccccc1)c1ccccc1`, the T/C reads like this: (T/C endpoint: median tumor weight (est.), dose: 6.25 mg/kg/injection, schedule: Q07DX003 (ip), vehicle: saline with Tween-80, evaluated on day 20, higher T/C = larger tumour) 137 % of control; (T/C endpoint: median tumor weight (est.), dose: 25.0 mg/kg/injection, schedule: Q07DX003 (ip), vehicle: saline with Tween-80, evaluated on day 20, higher T/C = larger tumour) 126 % of control.
On to `C[C@]12CC[C@@H]3c4ccc(O)cc4CC[C@H]3[C@@H]1CC[C@@H]2O`, for which the T/C reads like this: (T/C endpoint: median tumor weight (est.), dose: 6.25 mg/kg/injection, schedule: Q07DX002 (ip), vehicle: Klucel (hydroxypropylcellulose) (HPC), evaluated on day 20, higher T/C = larger tumour) 143 % of control; (T/C endpoint: median tumor weight (est.), dose: 50.0 mg/kg/injection, schedule: Q07DX002 (ip), vehicle: Klucel (hydroxypropylcellulose) (HPC), evaluated on day 20, higher T/C = larger tumour) 128 % of control [9 of 10 alive]; (T/C endpoint: median tumor weight (est.), dose: 100.0 mg/kg/injection, schedule: Q07DX002 (ip), vehicle: Klucel (hydroxypropylcellulose) (HPC), evaluated on day 20, higher T/C = larger tumour) 131 % of control [9 of 10 alive].
For the molecule `COC1C=CC23c4cc5c(cc4C(O)OC2CN(C)C3C1)OCO5` (configuration not stated), the survivor count (T/C endpoint: median tumor weight (est.), dose: 150.0 mg/kg/injection, schedule: Q07DX002 (ip), vehicle: suspension in saline, higher T/C = larger tumour) is listed as 1 of 10 on day 20.
Consider `CCCCNC(C)[C@]1(O)Cc2c(O)c3c(c(O)c2[C@@H](OC2CC(N)C(O)C(C)O2)C1)C(=O)c1c(OC)cccc1C3=O` (some centres not stated), for which the T/C was 147 % of control [9 of 10 alive on day 44] (T/C endpoint: median survival time, dose: 42.0 mg/kg/injection, schedule: Q07DX002 (sc), vehicle: saline, higher T/C = longer survival); 130 % of control [8 of 10 alive on day 44] (T/C endpoint: median survival time, dose: 68.0 mg/kg/injection, schedule: Q07DX002 (sc), vehicle: saline, higher T/C = longer survival); 132 % of control (T/C endpoint: median tumor weight (est.), dose: 1.69 mg/kg/injection, schedule: Q07DX002 (ip), vehicle: saline, evaluated on day 20, higher T/C = larger tumour). The survivor count by setting is: (T/C endpoint: median survival time, dose: 110.0 mg/kg/injection, schedule: Q07DX002 (sc), vehicle: saline, higher T/C = longer survival) 5 of 10 on day 44; (T/C endpoint: median tumor weight (est.), dose: 27.0 mg/kg/injection, schedule: Q07DX002 (ip), vehicle: saline, higher T/C = larger tumour) 1 of 10 on day 20; (T/C endpoint: median tumor weight (est.), dose: 54.0 mg/kg/injection, schedule: Q07DX002 (ip), vehicle: saline, higher T/C = larger tumour) 1 of 10 on day 20.
